Source: ChEMBL document CHEMBL4627394, “A Grand Challenge. 3. Unbiased Phenotypic Function of Metabolites from Australia Plants Gloriosa superba and Alangium villosum against Parkinson's Disease” (J Nat Prod, 2020)

Tests used:
[1] = Cytotoxicity against Parkinson's disease patient derived human ONS cells assessed as effect on nucleus morphology parameters at 10 uM after 24 hrs by DAPI staining based fluorescence assay
[2] = Cytotoxicity against Parkinson's disease patient derived human ONS cells assessed as effect on cell morphology parameters at 10 uM after 24 hrs by DAPI staining based fluorescence assay

For `COc1c(O)cc2c(c1OC)-c1ccc(OC)c(=O)cc1[C@@H](NC(C)=O)CC2` [3-DESMETHYLCOLCHICIN], the Activity [1] was “Non-Toxic” and the Activity [2] was “Non-Toxic”.
